Laboratory results published in PMC11240526.
Results are given in words; binding and its absence hold for the method and conditions named. Binding seen in cells or lysates may run through a third protein. Some results given as binding are weak or reduced against the parent protein; the word gives no strength.

The chains behind the UniProt entries cited, without tags or fusion partners. Residues count along the entry.
UniProt P11912, residues 33-226: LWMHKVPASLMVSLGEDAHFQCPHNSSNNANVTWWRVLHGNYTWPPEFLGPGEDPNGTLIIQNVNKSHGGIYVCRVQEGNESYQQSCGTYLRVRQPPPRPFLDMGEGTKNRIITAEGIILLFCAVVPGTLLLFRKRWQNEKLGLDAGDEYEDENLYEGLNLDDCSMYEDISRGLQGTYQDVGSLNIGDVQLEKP
UniProt P40259, residues 29-229: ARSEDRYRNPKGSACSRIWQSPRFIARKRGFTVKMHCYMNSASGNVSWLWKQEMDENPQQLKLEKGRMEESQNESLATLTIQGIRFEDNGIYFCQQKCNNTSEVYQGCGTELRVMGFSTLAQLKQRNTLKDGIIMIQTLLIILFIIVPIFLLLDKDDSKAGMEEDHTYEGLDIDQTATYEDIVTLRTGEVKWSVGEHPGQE

What was measured:
[1] = biological target: CD79a of the OSU-CLL cell line (human (endogenous in OSU-CLL)) (UniProt P11912); experiment: co-IP; anti-CD79a with Protein G agarose beads; OSU-CLL cell line membrane fraction; Western blot (Figure S3)
[2] = biological target: CD79a (human (endogenous in Raji)) (UniProt P11912); experiment: co-IP; anti-CD79a with Protein G agarose beads; Raji membrane fraction solubilised in 0.5% DOC buffer (10 mM Tris pH 7.5); bead eluate read by Western blot
[3] = biological target: CD79b (human (endogenous in Raji)) (UniProt P40259); experiment: co-IP; antibody to the bait (anti-CD79a, anti-CD79b or anti-IgM) with Protein G agarose beads; Raji membrane fraction solubilised in 1% Triton X-100 lysis buffer in PBS; overnight at 4 °C; bead eluate read by Western blot, band intensities normalised to protein load

Substance: CD79b of the OSU-CLL cell line (from UniProt P40259 29-229)
- binding [1]: binds

Substance: CD79b (from UniProt P40259 29-229)
- binding [2]: binds

Substance: CD79a (from UniProt P11912 33-226)
- binding [3]: binds weakly
